In publication PMC3744504:
Changes are numbered by the printed parent chain. Numbers in names are those of the source. Results are given in words; binding and its absence hold for the method and conditions named. Sequences can lack the tags named with a protein.

B1: 2xmut hQPCT (Y115E-Y117E), Ala33-Leu361, His6-tagged (enzyme, UniProt Q16769 33-361)
chain: ASAWPEEKNYHQPAILNSSALRQIAEGTSISEMWQNDLQPLLIERYPGSPGSYAARQHIMQRIQRLQADWVLEIDTFLSQTPEGERSFSNIISTLNPTAKRHLVLACHYDSKYFSHWNNRVFVGATDSAVPCAMMLELARALDKKLLSLKTVSDSKPDLSLQLIFFDGEEAFLHWSPQDSLYGSRHLAAKMASTPHPPGARGTSQLHGMDLLVLLDLIGAPNPTFPNFFPNSARWFERLQAIEHELHELGLLKDHSLEGRYFQNYSYGGVIQDDHIPFLRRGVPVLHLIPSPFPEVWHTMDDNEENLDESTIDNLNKILQVFVLEYLHL
B2: 6xmut hQPCT (Y115E-Y117E-S119A-S121A-W149D-N150P), Ala33-Leu361, His6-tagged (enzyme, UniProt Q16769 33-361)
chain: B1 chain with S87A, S89A, W117D, N118P

Legend:
[1] = biological target: 2xmut hQPCT (Y115E-Y117E), Ala33-Leu361, His6-tagged (human) (UniProt Q16769); assay: SEC; HiLoad 16/60 Superdex 75 column after Ni-affinity; 150 mM NaCl, 50 mM Tris, pH 8; both purified
[2] = biological target: 6xmut hQPCT (Y115E-Y117E-S119A-S121A-W149D-N150P), Ala33-Leu361, His6-tagged (human) (UniProt Q16769); assay: as above

Binder | binding [1] | binding [2]
B1 | no binding | 
B2 |  | no binding
